The structures given here were assigned with low confidence; some may be wrong.
How the values were obtained:
[1] = tested on: pathway directly downstream of cGAS in cGAMP-stimulated THP1-Dual cells; test: cGAMP stimulated counter cell assay (THP1(cGAMP) IC50): IFN induction in cGAMP-stimulated THP1-Dual cells; format: cell-based, human; conditions: Table 1; for IC50: read-out: THP(cGAMP) IC50, cGAMP-stimulated THP1 cells
[2] = molecular target: cellular cGAS activity in dsDNA-stimulated human whole blood (Homo sapiens (Human), UniProt Q8N884); test: Human whole blood assay (hWB IC50): IFNα2a production after dsDNA transfection; format: cell-based; conditions: read-out: hWB IC50, Table 1;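 also: IFNα-2a in plasma measured by MSD electrochemiluminescence immunoassay after 22 h at 37 °C, 8-point dilution series from 10 µM top concentration, DMSO wells as controls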
[3] = molecular target: cellular cGAS activity in baculovirus-stimulated THP1-Dual cells (Homo sapiens (Human), UniProt Q8N884); test: Human cGAS cell assay (THP1(vir) IC50): IFN induction in virus-stimulated THP1-Dual cells, IRF Lucia luciferase reporter; format: cell-based; conditions: read-out: THP(vir) IC50, Table 1;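 also: Eight-point dilution series starting at 10 µM, 1% DMSO, 18 h at 37 °C, luminescence read-out, virus-free wells as 0% and DMSO-treated virus-stimulated wells as 100%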
Human cGAS enzyme = Human cGAS enzyme (Homo sapiens (Human), UniProt Q8N884); test: Human cGAS enzyme assay (hcGAS IC50, in vitro), cGAMP formation by RapidFire MS; format: biochemical; conditions: read-out: hcGAS IC50; Table 1;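 also: recombinant human cGAS activated by 45 bp dsDNA with 30 µM each ATP and GTP, 90 min, cGAMP vs cyclic-di-GMP standard by MS, 8-point titration from 10 µM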

Sequences of proteins named here, by UniProt entry; tags and fusion partners are left off.
UniProt Q8N884, whole entry: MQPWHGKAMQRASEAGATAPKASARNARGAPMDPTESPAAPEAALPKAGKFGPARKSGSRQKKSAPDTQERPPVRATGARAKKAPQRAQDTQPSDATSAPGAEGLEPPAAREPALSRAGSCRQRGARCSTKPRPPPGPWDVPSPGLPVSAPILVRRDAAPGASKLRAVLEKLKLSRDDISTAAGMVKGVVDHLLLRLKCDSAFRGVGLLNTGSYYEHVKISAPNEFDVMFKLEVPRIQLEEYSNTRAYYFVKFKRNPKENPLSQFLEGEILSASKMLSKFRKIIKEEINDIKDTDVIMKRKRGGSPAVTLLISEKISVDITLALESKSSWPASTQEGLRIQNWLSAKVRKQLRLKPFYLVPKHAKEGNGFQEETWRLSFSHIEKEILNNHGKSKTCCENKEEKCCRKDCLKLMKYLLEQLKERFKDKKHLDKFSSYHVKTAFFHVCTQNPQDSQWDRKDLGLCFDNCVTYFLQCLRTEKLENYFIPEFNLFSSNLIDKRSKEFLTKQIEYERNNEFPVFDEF

Work on `C[C@H]1CN2CC[C@]1(F)c1cc(Cl)cnc1O[C@H]1C[C@@H](C(=O)O)N(C1)c1nc(nc3c1oc1ccccc13)C(F)(F)C(=O)NCCCC2=O` yielded an IC50 [1] of 980 nM.

With `C[C@H]1CN2CC[C@]1(F)c1cc(Cl)cnc1O[C@H]1C[C@@H](C(=O)O)N(C1)c1nc(nc3c1oc1ccccc13)C(F)(F)C(=O)N(C)CCCC2=O` the “Ratio THP(cGAMP) IC50/ THP(vir) IC50” value ([1]; selectivity for cGAS inhibition) was 165, the IC50 [1] was > 10000 nM and the IC50 [2] was 76 nM. The IC50 [3] was 60 nM and the IC50 (Human cGAS enzyme) was 7.5 nM.

— patent US20240189315A1, “Cyclic Pyridine Derivatives as cGAS Inhibitors” (Boehringer Ingelheim International GmbH, priority 2022, published 2024)
